Among the data in patent publication US20250009795A1 are binding values, retold here.

No constants are given. Whether binding was seen depends on the method and setting. Some binding calls cover weakened binding; strength is not graded here.

The target in assay [1] is EGFR domain IV (immobilized on CM5 chip) (human) (UniProt P00533). Nature of the assay: SPR: EGFR domain IV immobilized on CM5 chip (500 RU), IgG at 30, 10, 3 nM, 25 °C.
The target is the same in assay [2]. The assay can be described thus: SPR, EGFR domain IV immobilized on CM5 chip at 500 RU, IgG injected at 30, 10 and 3 nM, 25 C. (In SPR one partner is held on a chip, and binding of the other changes the refractive index at the surface.)
Assay [3] has as its target EGFRviii on U87-EGFRviii cells (UniProt P00533). Nature of the assay: flow cytometry on U87-EGFRviii cells, 1, 10, 100 ug/ml antibody, anti-Fc Alexa-647 secondary.
For assay [4] the target is unchanged. The assay can be described thus: flow cytometry: U87-EGFRviii cells, 1, 10, 100 µg/ml antibody at 4 °C, anti-Fc Alexa-647 secondary.
The target is the same in assay [5]. Nature of the assay: flow cytometry, U87-EGFRviii cells, 1, 10 or 100 ug/ml antibody, anti-Fc Alexa-647 secondary.
Assay [6] concerns the target EGFR-His (UniProt P00533). Nature of the assay: ELISA: recombinant proteins coated, purified 5C8 mAb, OD450.
For assay [7], the target named is EGFR-His (UniProt P00533). The assay can be described thus: ELISA with various recombinant proteins. For orientation: ELISA stands for enzyme-linked immunosorbent assay.

B1: EGFRD4-30Ab (antibody, V domains shown)
VH: DVQLQESGPDLVKPSQSLSLTCTVTGYSITSGDSWHWIRQFPGNKLEWMGYIHYSGSTKYNPSLKSRISITRDTSKNQFFLQLNSVTTEDTATYYCASWFYYAMDYWGQGTSVTVSS
VL: ENVLTQSPAIMSASPGEKVTMTCRASSSVSSSYLHWFQQKSGASPKLWIYSTSNLASGVPARFSGSGSGTSYSLTISSVEAEDAATYYCQQYSGFPLTFGAGTKLELK
With B1, the binding entry in assay [1] and in assay [2] was “binds” in each case.

B2: EGFRD4-34Ab (antibody, V domains shown)
VH: QIQLVQSGPELKKPGETVKISCKASGYTFTNYGMNWVKQAPGKGLKWMGWINTYTGDPTYADDFKGRFAFSLETSASTAYLQINNLKNEDMATYFCARRISTMITTWFAYWGQGTLVTVSA
VL: DIQMTQSPASLSASVGETVTITCRASENIYSYLAWFQQRQGKSPQLLVYNAKTLTEGVPSRFSGSGSGTQFSLKINSLQPEDFGSYYCQHYQVTPYTFGGGTKLEIK
For B2, the binding result in assay [1] and in assay [2] was “binds” in each case.

B3: chimeric anti-domain IV EGFR antibody clone 5C8 (EGFRD4-5C8) (antibody, V domains shown)
VH: EVQLQQSGPELVKTGASVKISCKASGYSFTGYYMHWVKQSHGKSLEWIGYINCYNGAINYNQKFKGKATFTVDTSSSTVYMQFNSLTSEDSAVYYCVRAGIHYDYDEAWFAYWGQGTLVTVSA
VL: QAVVTQESALTTSPGETVTLTCRSSTGPVIIRNYANWVQEKPDHLFTGLIGGTNNRAPGVPARFSGSLIGDKAALTITGAQTEDEAIYFCALWYNNHWVFGGGTKLTVL
Turning to B3, the binding entry in assay [3], in assay [4] and in assay [5] was “binds” in each case.

B4: hybridoma clone 5C8 (mouse antibody, culture supernatant) (antibody, V domains shown)
VH: B3 VH
VL: B3 VL
Take B4: the binding result in assay [6] and in assay [7] was “binds” throughout.

B5: EGFRD4-28Ab (antibody, V domains shown)
VH: EVQLQQSGPELVKPGASVKISCKASGYSFTGYYMHWVKQSHVKSLEWIGRINPYNGATIYNQNFKDKASLTVDKSSSTAYMELHSLTSEDSAVYYCARDDYEGAMDYWGQGTSVTVSS
VL: NIMMTQLPSSLAVSAGEKVTMSCKSSQSVLYISNQKNYLAWFQQKPGQSPKLLIYWASTRESGVPDRFTGSGSGTDFTLTISSVQAEDLAVYYCHQYFSSYTFGGGTKLEIK
Consider B5, for which the binding entry in assay [1] and in assay [2] was “binds” throughout.
